From paper doi:10.1101/2022.03.14.484356 (bioRxiv, 2022)
Where two headings read alike, the source gives them in different places. No constants are given. Whether binding was seen depends on the method and setting. For some of these results: Binding seen in cells or lysates may run through a third protein. Some entries that bind do so weakly or less than the wild type. For some of these results: Where a sequence is shown, tags or fusion partners need not be part of it. Each block holds one molecule with its values, some of them ahead of it.

Protein sequences, listed by entry. Tags and fused reporters are not part of them.
UniProt P62491: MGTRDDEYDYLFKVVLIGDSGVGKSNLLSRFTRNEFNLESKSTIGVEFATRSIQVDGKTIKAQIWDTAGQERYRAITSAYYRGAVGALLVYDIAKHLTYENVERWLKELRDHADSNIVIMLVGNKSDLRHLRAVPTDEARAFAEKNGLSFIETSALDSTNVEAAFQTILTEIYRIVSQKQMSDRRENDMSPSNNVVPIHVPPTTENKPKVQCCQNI

Columns and labels:
[1] = biological target: T1, Flag-tagged RABL3 (RAB-Like 3), wild type (human) (UniProt Q5HYI8); experiment: co-IP
T1 sequence: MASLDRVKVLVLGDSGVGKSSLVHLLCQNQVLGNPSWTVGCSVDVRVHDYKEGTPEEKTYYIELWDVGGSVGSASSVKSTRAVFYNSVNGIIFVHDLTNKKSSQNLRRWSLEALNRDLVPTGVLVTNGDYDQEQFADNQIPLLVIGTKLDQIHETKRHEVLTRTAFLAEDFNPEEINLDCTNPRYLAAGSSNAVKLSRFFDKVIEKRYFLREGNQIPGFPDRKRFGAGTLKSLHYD

[2] = biological target: GFP-fused RAB11A, wild type (human) (UniProt P62491); experiment: co-IP
[3] = biological target: recombinant GST-RAB11A (human) (UniProt P62491); experiment: pull-down
[4] = biological target: recombinant GST-RAB11A (human) (UniProt P62491); experiment: pull-down; remark: listed apart in the source

binding [1]: binds
Molecule: GFP-fused RAB11A, wild type (from UniProt P62491 1-216)

binding [2]: binds
B1: Flag-tagged RABL3 (RAB-Like 3), wild type (protein, UniProt Q5HYI8 1-236)
chain: MASLDRVKVLVLGDSGVGKSSLVHLLCQNQVLGNPSWTVGCSVDVRVHDYKEGTPEEKTYYIELWDVGGSVGSASSVKSTRAVFYNSVNGIIFVHDLTNKKSSQNLRRWSLEALNRDLVPTGVLVTNGDYDQEQFADNQIPLLVIGTKLDQIHETKRHEVLTRTAFLAEDFNPEEINLDCTNPRYLAAGSSNAVKLSRFFDKVIEKRYFLREGNQIPGFPDRKRFGAGTLKSLHYD

binding [3]: no binding (condition: with 10 μM GTPγS)
binding [4]: no binding (condition: with 10 μM GDP)
B2: recombinant RABL3 (protein, UniProt Q5HYI8 1-236)
chain: MASLDRVKVLVLGDSGVGKSSLVHLLCQNQVLGNPSWTVGCSVDVRVHDYKEGTPEEKTYYIELWDVGGSVGSASSVKSTRAVFYNSVNGIIFVHDLTNKKSSQNLRRWSLEALNRDLVPTGVLVTNGDYDQEQFADNQIPLLVIGTKLDQIHETKRHEVLTRTAFLAEDFNPEEINLDCTNPRYLAAGSSNAVKLSRFFDKVIEKRYFLREGNQIPGFPDRKRFGAGTLKSLHYD
